Experimental data published in patent US20210346401A1, “REGULATOR OF TGR5 SIGNALING AS IMMUNOMODULATORY AGENT” (YICHANG HUMANWELL PHARMACEUTICAL CO., LTD, priority 2018, published 2021).
At least one compound was matched to its structure with a doubt left.

Columns and labels:
monocytes = monocytes in vitro; cited from earlier work
Raw264.7 cells [1] = experiment: Induction of type I IFNs and other antiviral genes by BAs (qPCR); assay type: cell-based; details: indicated concentrations of BAs
Description: D. Induction of type I IFNs and other antiviral genes by BAs. Raw264.7 cells were treated by the indicated concentrations of the indicated BAs, followed by qPCR analysis of the expression of the indicated genes. L. Induction of type I IFNs and other antiviral genes by BAs. Raw264.7 cells were treated with LCA (200 μM) or CDCA (200 μM) for the indicated times, followed by qPCR analysis of the expression of the indicated genes.

Raw264.7 cells [2] = experiment: Induction of phosphorylation of TBK1 and IRF3 by BAs (immunoblotting); assay type: cell-based; details: indicated concentrations of CDCA and LCA
Description: E. Induction of phosphorylation of TBK1 and IRF3 by BAs. Raw264.7 cells were treated by the indicated concentrations of CDCA and LCA, followed by immunoblotting analysis with the indicated antibodies. Cells were lysed with RIPA buffer plus complete protease inhibitors and 20 mM NEM, and lysates were sonicated for 1 min. The lysates were centrifuged at 14000 rpm for 20 min at 4° C. The supernatants were incubated with respective antibodies at 4° C. overnight before protein G beads were added for 2 h. The beads were washed with cold PBS plus 0.5 M NaCl for three times followed by an additional wash with PBS. Proteins were separated by 8% SDS-PAGE, followed by immunoblot analysis with the indicated antibodies.

Compound | production of interleukin-1, interleukin-6 and tumor necrosis factor-α (monocytes) | transcription of downstream innate immunity genes including IFNB1, CXCL10 and ISG56 (Raw264.7 cells [1]) | phosphorylation of TBK1 and IRF3 (Raw264.7 cells [2])
C[C@H](CCC(=O)O)[C@H]1CC[C@H]2[C@@H]3[C@@H](O)C[C@@H]4C[C@H](O)CC[C@]4(C)[C@H]3CC[C@]12C [ursodeoxycholic acid] | inhibits | – | –
C[C@H](CCC(=O)O)[C@H]1CC[C@H]2[C@@H]3CC[C@@H]4C[C@H](O)CC[C@]4(C)[C@H]3CC[C@]12C [LCA, lithocholic acid] | – | potently induced | induced phosphorylation
